Like-named read-outs stand apart in the source and are kept apart here. Results are given in words; binding and its absence hold for the method and conditions named. Binding seen in cells or lysates may run through a third protein. Here binding means that the protein was enriched with, or labelled near, the bait; the list need not be complete.
Experiments:
APEX2-FUS WT (human) [1] = molecular target: APEX2-FUS WT (human) (UniProt P35637); assay: proximity labelling; APEX2-FUS fusions transfected in HEK293T; 500 uM biotin-phenol 30 min, 1 mM H2O2 1 min; biotinylated proteins enriched on streptavidin magnetic beads, on-bead digestion, label-free LC-MS/MS; SAINT probability >=0.95 against untransfected control cells
APEX2-FUS WT (human) [2] = molecular target: APEX2-FUS WT (human) (UniProt P35637); assay: as above; remark: listed apart in the source

Chains of the proteins cited; added tags and fusions are not shown.
UniProt P35637: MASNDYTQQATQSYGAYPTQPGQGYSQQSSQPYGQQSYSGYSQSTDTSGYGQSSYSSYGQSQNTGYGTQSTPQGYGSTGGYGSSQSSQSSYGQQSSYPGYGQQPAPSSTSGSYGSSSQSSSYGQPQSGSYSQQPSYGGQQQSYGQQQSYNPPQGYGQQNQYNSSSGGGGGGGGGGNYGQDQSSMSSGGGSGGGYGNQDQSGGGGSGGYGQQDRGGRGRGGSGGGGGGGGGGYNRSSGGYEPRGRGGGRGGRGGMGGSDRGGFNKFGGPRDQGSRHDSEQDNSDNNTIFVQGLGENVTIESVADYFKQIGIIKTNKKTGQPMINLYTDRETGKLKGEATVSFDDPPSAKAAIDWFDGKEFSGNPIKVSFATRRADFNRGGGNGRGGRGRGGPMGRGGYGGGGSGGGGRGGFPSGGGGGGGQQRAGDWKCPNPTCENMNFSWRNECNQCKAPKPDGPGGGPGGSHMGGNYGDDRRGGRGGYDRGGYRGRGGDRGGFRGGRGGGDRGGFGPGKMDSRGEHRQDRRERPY
UniProt Q9UHV7: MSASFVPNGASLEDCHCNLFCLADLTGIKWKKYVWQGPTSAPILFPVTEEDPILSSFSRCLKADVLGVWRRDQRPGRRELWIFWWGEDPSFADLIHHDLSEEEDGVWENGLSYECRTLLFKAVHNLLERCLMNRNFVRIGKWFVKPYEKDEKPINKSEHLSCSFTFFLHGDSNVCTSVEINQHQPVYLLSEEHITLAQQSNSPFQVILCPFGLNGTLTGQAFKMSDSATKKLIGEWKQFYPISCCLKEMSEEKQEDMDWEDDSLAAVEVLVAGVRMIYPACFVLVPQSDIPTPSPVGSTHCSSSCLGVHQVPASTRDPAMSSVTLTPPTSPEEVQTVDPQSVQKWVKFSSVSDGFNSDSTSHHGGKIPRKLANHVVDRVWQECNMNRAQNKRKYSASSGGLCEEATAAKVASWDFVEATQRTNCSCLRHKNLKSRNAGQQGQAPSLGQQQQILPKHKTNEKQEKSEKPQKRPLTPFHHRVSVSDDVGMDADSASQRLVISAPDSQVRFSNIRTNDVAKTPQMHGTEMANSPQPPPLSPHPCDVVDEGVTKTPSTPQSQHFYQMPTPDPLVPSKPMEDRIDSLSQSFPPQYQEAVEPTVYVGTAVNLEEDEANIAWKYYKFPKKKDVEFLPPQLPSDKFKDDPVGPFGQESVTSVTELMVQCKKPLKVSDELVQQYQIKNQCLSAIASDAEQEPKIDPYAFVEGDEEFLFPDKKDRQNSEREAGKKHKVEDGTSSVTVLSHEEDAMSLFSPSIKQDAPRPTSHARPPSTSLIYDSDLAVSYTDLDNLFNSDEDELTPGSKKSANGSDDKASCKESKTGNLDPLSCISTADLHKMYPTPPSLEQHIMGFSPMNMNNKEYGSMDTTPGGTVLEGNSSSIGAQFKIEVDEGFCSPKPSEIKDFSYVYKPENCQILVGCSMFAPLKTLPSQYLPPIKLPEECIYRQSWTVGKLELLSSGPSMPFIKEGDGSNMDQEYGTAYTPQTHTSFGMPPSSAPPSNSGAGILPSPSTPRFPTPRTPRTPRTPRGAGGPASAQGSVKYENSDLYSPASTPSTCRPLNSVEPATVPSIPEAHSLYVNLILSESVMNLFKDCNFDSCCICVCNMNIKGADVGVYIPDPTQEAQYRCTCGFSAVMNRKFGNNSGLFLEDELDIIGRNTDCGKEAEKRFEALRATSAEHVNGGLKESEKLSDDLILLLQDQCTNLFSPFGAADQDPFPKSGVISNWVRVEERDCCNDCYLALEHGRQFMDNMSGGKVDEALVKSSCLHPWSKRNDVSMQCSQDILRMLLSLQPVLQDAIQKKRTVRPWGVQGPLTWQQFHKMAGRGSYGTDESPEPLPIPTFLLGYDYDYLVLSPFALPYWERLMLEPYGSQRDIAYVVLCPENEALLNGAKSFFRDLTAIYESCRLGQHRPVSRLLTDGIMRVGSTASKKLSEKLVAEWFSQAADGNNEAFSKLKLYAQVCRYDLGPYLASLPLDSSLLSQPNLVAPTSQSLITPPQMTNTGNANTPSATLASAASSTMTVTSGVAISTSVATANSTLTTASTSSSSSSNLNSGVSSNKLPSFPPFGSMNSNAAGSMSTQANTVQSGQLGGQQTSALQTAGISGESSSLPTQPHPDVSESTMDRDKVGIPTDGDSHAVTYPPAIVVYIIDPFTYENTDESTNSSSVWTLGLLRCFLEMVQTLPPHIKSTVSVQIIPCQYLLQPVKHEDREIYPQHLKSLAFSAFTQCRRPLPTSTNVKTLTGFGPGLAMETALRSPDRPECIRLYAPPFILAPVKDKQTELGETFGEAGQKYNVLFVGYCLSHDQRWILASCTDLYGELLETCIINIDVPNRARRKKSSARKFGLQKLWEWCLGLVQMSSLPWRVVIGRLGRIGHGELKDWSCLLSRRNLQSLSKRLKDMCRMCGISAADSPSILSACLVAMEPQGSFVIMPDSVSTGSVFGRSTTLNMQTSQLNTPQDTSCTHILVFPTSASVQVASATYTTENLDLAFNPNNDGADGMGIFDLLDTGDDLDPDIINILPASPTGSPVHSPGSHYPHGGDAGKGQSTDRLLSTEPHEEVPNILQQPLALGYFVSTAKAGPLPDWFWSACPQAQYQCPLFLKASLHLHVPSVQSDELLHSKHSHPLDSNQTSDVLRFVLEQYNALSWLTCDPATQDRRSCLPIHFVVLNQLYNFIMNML
UniProt O75128: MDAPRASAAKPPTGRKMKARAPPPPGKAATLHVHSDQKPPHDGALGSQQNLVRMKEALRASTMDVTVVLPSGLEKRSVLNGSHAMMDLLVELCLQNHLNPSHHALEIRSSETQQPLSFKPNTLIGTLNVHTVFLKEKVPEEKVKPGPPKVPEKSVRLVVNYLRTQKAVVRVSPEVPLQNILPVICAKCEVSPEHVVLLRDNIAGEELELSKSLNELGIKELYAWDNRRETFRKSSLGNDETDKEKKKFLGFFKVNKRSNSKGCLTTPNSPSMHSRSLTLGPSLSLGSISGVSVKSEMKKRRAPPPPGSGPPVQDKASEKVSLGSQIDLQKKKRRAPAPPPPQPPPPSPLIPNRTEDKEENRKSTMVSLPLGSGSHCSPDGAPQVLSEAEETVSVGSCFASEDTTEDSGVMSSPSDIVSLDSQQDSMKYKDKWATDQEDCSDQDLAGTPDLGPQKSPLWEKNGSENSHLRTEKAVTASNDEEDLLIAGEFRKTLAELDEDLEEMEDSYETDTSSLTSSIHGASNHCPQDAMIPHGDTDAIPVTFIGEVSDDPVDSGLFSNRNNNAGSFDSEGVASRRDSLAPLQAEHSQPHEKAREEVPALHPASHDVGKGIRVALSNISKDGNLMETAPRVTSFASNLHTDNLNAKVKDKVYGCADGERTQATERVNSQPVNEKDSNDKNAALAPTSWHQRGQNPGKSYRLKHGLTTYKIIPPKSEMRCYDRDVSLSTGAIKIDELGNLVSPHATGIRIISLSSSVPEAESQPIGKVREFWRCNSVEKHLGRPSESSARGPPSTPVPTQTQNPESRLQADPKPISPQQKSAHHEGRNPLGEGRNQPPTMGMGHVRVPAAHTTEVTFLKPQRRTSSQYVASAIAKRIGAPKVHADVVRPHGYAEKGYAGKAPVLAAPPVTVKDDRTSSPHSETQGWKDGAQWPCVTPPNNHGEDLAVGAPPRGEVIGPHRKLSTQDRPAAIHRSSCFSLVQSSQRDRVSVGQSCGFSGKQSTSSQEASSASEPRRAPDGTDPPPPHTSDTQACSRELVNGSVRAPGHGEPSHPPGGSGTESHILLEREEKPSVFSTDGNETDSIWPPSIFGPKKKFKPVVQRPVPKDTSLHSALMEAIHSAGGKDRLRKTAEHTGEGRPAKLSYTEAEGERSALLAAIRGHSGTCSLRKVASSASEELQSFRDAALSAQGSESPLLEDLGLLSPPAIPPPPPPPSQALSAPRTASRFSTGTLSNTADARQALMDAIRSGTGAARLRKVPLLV

## MED13 (Mediator of RNA polymerase II transcription subunit 13) (from UniProt Q9UHV7 1-2174)
APEX2-FUS WT (human) [1]
  binding: binds

## COBL (Cordon-bleu WH2 repeat protein) (from UniProt O75128 1-1261)
APEX2-FUS WT (human) [1]
  binding: binds

B1: PHLDB2 (Pleckstrin homology–like domain family B member 2) (protein, UniProt Q86SQ0 1-1253)
chain: MEEHSYIQKELDLQNGSLEEDSVVHSVENDSQNMMESLSPKKYSSSLRFKANGDYSGSYLTLSQPVPAKRSPSPLGTSVRSSPSLAKIQGSKQFSYDGTDKNIPMKPPTPLLNTTSSLSGYPLGRADFDHYTGRDSERALRLSEKPPYSKYSSRHKSHDNVYSLGGLEGRKASGSLLAMWNGSSLSDAGPPPISRSGAASMPSSPKQARKMSIQDSLALQPKLTRHKELASENINLRTRKYSSSSLSHMGAYSRSLPRLYRATENQLTPLSLPPRNSLGNSKRTKLGEKDLPHSVIDNDNYLNFSSLSSGALPYKTSASEGNPYVSSTLSVPASPRVARKMLLASTSSCASDDFDQASYVGTNPSHSLLAGESDRVFATRRNFSCGSVEFDEADLESLRQASGTPQPALRERKSSISSISGRDDLMDYHRRQREERLREQEMERLERQRLETILSLCAEYTKPDSRLSTGTTVEDVQKINKELEKLQLSDEESVFEEALMSPDTRYRCHRKDSLPDADLASCGSLSQSSASFFTPRSTRNDELLSDLTRTPPPPSSTFPKASSESSYLSILPKTPEGISEEQRSQELAAMEETRIVILNNLEELKQKIKDINDQMDESFRELDMECALLDGEQKSETTELMKEKEILDHLNRKIAELEKNIVGEKTKEKVKLDAEREKLERLQELYSEQKTQLDNCPESMREQLQQQLKRDADLLDVESKHFEDLEFQQLEHESRLDEEKENLTQQLLREVAEYQRNIVSRKEKISALKKQANHIVQQAQREQDHFVKEKNNLIMMLQREKENLCNLEKKYSSLSGGKGFPVNPNTLKEGYISVNEINEPCGNSTNLSPSTQFPADADAVATEPATAVLASQPQSKEHFRSLEERKKQHKEGLYLSDTLPRKKTTSSISPHFSSATMGRSITPKAHLPLGQSNSCGSVLPPSLAAMAKDSESRRMLRGYNHQQMSEGHRQKSEFYNRTASESNVYLNSFHYPDHSYKDQAFDTLSLDSSDSMETSISACSPDNISSASTSNIARIEEMERLLKQAHAEKTRLLESREREMEAKKRALEEEKRRREILEKRLQEETSQRQKLIEKEVKIRERQRAQARPLTRYLPVRKEDFDLRSHVETAGHNIDTCYHVSITEKTCRGFLIKMGGKIKTWKKRWFVFDRNKRTFSYYADKHETKLKGVIYFQAIEEVYYDHLKNANKSPNPLLTFSVKTHDRIYYMVAPSPEAMRIWMDVIVTGAEGYTHFLL
APEX2-FUS WT (human) [2]
  binding: binds

Source: publication PMC9372748
